According to patent US6384249B1, “Compounds and methods for stabilization of furfural compositions” (Hercules, Inc., priority 2000, dated 2002):

Assay: Hot Process Liquid Simulator (HLPS) test heat exchanger, rod deposits at 500° F.
Conditions: 24 ppmA

SMILES | Deposit Weight (rod deposits)
CCC(C)Nc1ccc(NC(C)CC)cc1 (centres unmarked) [Compound #1] | 0.4 mg
CC(C)CC(C)N=C1C=CC(=Nc2ccccc2)C=C1 (centres unmarked) [Compound #4] | 0.1 mg
